Test results reported in paper doi:10.1101/2025.03.14.642698.
No constants are given. Whether binding was seen depends on the method and setting. Binding seen in cells or lysates may run through a third protein. Some entries that bind do so weakly or less than the wild type. Sequences can lack the tags named with a protein.

Legend:
Assay in all cases: co-IP
[1] = molecular target: T1, Ldb16 (1-133)-FLAG, genomically expressed (S. cerevisiae) (UniProt P25587)
T1 sequence: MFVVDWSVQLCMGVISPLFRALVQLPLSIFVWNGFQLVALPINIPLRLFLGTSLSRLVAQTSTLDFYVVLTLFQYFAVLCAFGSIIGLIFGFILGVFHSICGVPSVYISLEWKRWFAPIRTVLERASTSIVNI

[2] = molecular target: T2, Ldb16-3xFLAG, wild type, plasmid-borne (S. cerevisiae) (UniProt P25587)
T2 sequence: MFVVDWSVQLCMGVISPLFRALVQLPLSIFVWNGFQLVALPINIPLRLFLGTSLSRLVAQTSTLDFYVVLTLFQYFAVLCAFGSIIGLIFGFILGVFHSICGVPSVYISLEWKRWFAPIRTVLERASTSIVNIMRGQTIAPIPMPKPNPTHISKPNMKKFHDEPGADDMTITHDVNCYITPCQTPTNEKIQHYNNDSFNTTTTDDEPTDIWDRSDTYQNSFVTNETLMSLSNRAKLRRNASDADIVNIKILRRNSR

[3] = molecular target: T3, Ldb16-FLAG, wild type, genomically expressed (S. cerevisiae) (UniProt P25587)
T3 sequence: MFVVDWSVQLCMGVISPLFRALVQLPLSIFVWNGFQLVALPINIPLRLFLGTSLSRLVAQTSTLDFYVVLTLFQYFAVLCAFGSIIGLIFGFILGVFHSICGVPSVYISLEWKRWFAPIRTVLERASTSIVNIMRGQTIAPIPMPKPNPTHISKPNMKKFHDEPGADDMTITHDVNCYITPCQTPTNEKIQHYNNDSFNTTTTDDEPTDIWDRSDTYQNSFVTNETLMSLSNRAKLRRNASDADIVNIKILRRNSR

Measured: binding

B1: Ldo45-HA, endogenously tagged (protein, UniProt P40218 1-412)
chain: MAARNRRKNNKKKSLLVTSAAQEKNATYVLVAEELHKKTIDLNMGTETPLTENHENPIPAKEFKHQQKLEPIDEHDDGEDELSIKFKSMTKSSGPITEAEVQKLLLSYAFTSAAIQEDENEKESRHYPIKPPSPSASSLSAYFQSFVEKCKQVFYNFSLQTVEKLNALQNSLYEVFWIIFIYLNYWFPNVGDYVSNTFGQQDSIIIRISLSKSHFRALREKSSQKVQQAVKNIYFCFQEKPYLTAFKVSFAIGLVIPCSLLFLIMVSTATFFFFVYLTLFVVIGFFSSLFIIPLLGISFVFAIGVVSFGFCSNMSFKMAQLIYVRADAFLKKVLDKMALQTQPAQLQEPQEPLSTLRPVSNPTIPSPLRQTARPSKFVTEEDVIFEPVSAQSAIARSLETTANKAGNKFQLS
binds: all assays above

B2: Ldo16-HA, endogenously tagged (protein, UniProt P40219 1-148)
chain: MVSTATFFFFVYLTLFVVIGFFSSLFIIPLLGISFVFAIGVVSFGFCSNMSFKMAQLIYVRADAFLKKVLDKMALQTQPAQLQEPQEPLSTLRPVSNPTIPSPLRQTARPSKFVTEEDVIFEPVSAQSAIARSLETTANKAGNKFQLS
binds: all assays above
